Values quoted from earlier work in patent US20230372448A1, “THERAPEUTIC USE OF LONG-ACTING CONJUGATE OF TRIPLE AGONIST ACTING ON ALL OF GLUCAGON, GLP-1 AND GIP RECEPTORS AGAINST MULTIPLE SCLEROSIS” (HANMI PHARM. CO. ,LTD., priority 2020, published 2023).
For at least one compound, name, drawing or mass did not settle the structure.

System: experimentally induced multiple sclerosis rat model
Conditions: Front Pharmacol. 2016; cited from earlier work

CCCCCCCCCCCCCCCC(=O)N[C@@H](CCC(=O)NCCCC[C@H](NC(=O)[C@H](C)NC(=O)[C@H](C)NC(=O)[C@H](CCC(N)=O)NC(=O)CNC(=O)[C@H](CCC(=O)O)NC(=O)[C@H](CC(C)C)NC(=O)[C@H](Cc1ccc(O)cc1)NC(=O)[C@H](CO)NC(=O)[C@H](CO)NC(=O)[C@@H](NC(=O)[C@H](CC(=O)O)NC(=O)[C@H](CO)NC(=O)[C@@H](NC(=O)[C@H](Cc1ccccc1)NC(=O)[C@@H](NC(=O)CNC(=O)[C@H](CCC(=O)O)NC(=O)[C@H](C)NC(=O)[C@@H](N)Cc1cnc[nH]1)[C@@H](C)O)[C@@H](C)O)C(C)C)C(=O)N[C@@H](CCC(=O)O)C(=O)N[C@@H](Cc1ccccc1)C(=O)N[C@H](C(=O)N[C@@H](C)C(=O)N[C@@H](Cc1c[nH]c2ccccc12)C(=O)N[C@@H](CC(C)C)C(=O)N[C@H](C(=O)N[C@@H](CCCNC(=N)N)C(=O)NCC(=O)N[C@@H](CCCNC(=N)N)C(=O)NCC(=O)O)C(C)C)[C@@H](C)CC)C(=O)O [liraglutide]
onset of the disease: delayed the onset of the disease
score of clinical symptoms at the time of onset: lowering the score of clinical symptoms
